Laboratory results taken from patent US10961303 (UNIVERSITEIT TWENTE, dated 2021).
No constants are given. Whether binding was seen depends on the method and setting. Some entries that bind do so weakly or less than the wild type. For part of these data: Where a sequence is shown, tags or fusion partners need not be part of it.

Protein sequences, listed by entry. Tags and fused reporters are not part of them. Residues count along the entry.
UniProt P18075, residues 293-431: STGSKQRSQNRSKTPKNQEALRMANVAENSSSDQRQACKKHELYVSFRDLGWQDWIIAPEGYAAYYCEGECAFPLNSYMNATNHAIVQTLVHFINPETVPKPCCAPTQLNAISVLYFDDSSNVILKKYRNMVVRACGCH

T1: BMP-6 (R&D systems cat. #507-BP/CF) (human, UniProt P22004 382-513, limits assumed)
T1 construct: Bought protein; also called recombinant human BMP-6
T1 sequence (looked up): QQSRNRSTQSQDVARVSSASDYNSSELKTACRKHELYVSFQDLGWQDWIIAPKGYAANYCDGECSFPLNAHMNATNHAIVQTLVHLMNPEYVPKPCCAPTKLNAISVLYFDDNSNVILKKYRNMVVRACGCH


Columns and labels:
[1] = target: T1, BMP-6 (R&D systems cat. #507-BP/CF); assay: ELISA on coated growth factor (FIG. 7A)
[2] = target: T1, BMP-6 (R&D systems cat. #507-BP/CF); assay: ELISA, 100 ng BMP6 coated, serial dilutions, read at 490 nm
From the text: FIG. 7A-7B show the binding properties of the fusion proteins according to the invention which bind to a growth factor or growth factor inhibitor and to a biomaterial. Fusion proteins according to the invention are composed of the VHH according to the invention binding to a growth factor (indicated in the figure as "VHH-6-F2") and a VHH binding to a biomaterial (indicated in the figure as "MA"). […] The fusion proteins (indicated in the figure as "F") were constructed by genetic fusion of a VHH binding to BMP6 and a VHH binding to hydroxyapatite. To achieve binding to the growth factor BMP6 (FIG. 7A), 100 ng of BMP6 was coated into wells of a maxisorb plate. Serial dilutions of the VHH which binds to BMP6 (VHH-6-F2) and fusion proteins according to the invention (F) were added to the wells. Bound VHHs (VHH-6-F2) and fusion proteins (F) were detected with labelled polyclonal antibodies.

[3] = target: BMP-7 (R&D system cat. #354-BP/CF) (UniProt P18075); assay: binding test to cognate antigen, method not described

Binder	binding [1]	binding [2]	binding [3]
F fusion protein (VHH binding to BMP6, VHH-6-F2, fused to a VHH binding to hydroxyapatite, MA) (protein) EVQLVESGGGFVQAGGSLRLSCAASGSIFSINAMGWYRQAPGKQRELVAAITSGGSTNYADSVKGRFTISRDNAKNTLYLQMNSLKPEDTAVYYCSAVTILLTSGGWGSGNDYWGQGTQVTVSSGGGGSEVQLVESGGGLVQAGGSLRLSCAASGRTFSTYSMGWFRRAPGKEREFVAAISWSGGTTRYTNSVKGRFTISKDNFGNTVYLQMNNLKPEDTAVYYCATRYSYSTTPEEYDLWGQGNQVTVSS	binds	binds	–
VHH-7-G7 (VHH, not shown: small tags and cut ends) VHH: EVQLVESGGGLVQAGGSLRLSCAASGFTFDDYIIGWFRQAPGKEREGISCISSSDGSTYYADSVTGRFTISSDNAKNTVYLQMNSLKPEDTAVYYCAAHAKWPYGTYSFRRCRRASFDSWGQGTQVTVSS	–	–	binds
